Laboratory results published in paper PMC6696269.
No constants are given. Whether binding was seen depends on the method and setting. In cells and extracts the contact can be indirect. Binding can be weak; no strength is given.

Molecular target: Zm-6&1-FEH1 C-terminally fused with nYFP (Zea mays) (UniProt B6U1H5)
Test: split reporter; split-YFP; cYFP and nYFP fusions co-expressed in N. benthamiana leaves for 48 h; YFP fluorescence of leaf epidermal cells read by confocal laser scanning microscopy

binding: binds
Substance: Zm-INVINH1 C-terminally fused with cYFP (from UniProt A0A1D6E1Q3)
